Experimental findings from article PMC12811313 are described below.

By UniProt entry, the sequences of proteins in these tests, tags left out.
UniProt O00161: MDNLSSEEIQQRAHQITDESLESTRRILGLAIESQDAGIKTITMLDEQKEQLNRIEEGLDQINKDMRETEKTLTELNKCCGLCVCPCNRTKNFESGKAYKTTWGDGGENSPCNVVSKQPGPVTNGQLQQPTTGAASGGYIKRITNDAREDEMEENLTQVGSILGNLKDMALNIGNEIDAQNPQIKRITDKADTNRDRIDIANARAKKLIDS
UniProt P19474: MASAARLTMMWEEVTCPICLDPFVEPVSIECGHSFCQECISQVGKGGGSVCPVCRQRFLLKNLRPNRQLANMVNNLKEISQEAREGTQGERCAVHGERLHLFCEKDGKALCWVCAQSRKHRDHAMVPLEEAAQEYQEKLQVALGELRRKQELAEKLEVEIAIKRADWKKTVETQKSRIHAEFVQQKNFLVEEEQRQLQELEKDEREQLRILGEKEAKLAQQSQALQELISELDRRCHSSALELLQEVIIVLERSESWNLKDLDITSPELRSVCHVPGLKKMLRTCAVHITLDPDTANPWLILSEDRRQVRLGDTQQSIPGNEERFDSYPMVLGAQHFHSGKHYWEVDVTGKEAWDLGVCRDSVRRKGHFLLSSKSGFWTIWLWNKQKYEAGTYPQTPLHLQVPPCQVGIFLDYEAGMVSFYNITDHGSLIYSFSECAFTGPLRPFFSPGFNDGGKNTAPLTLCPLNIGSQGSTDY

Test [1] addresses Synaptosomal-associated protein 23 (SNAP23) (human (endogenous in SW620 and HT29)) (UniProt O00161). Nature of the test: affinity purification with mass spectrometry; immunoprecipitated fractions of TFAM and of SNAP23 from SW620 cells analysed by mass spectrometry.
Test [2] addresses T1, mitochondrial transcription factor A (TFAM) (human (endogenous in SW620 and HT29)) (UniProt Q00059).
T1 sequence: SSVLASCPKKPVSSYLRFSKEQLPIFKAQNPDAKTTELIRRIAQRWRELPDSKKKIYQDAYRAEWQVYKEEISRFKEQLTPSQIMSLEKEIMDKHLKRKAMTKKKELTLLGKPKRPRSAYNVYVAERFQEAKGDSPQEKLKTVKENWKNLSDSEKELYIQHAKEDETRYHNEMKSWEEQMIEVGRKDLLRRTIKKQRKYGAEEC
The description is as above.

Results are given in words; binding and its absence hold for the method and conditions named. In cells and extracts the contact can be indirect. These calls come from enrichment with a bait or labelling near it, and not all partners need be listed.

For the substance “E3 ubiquitin ligase Trim21 (from UniProt P19474 1-475)”, the binding entry in test [1] and in test [2] was “binds” each time.
